Measurements from PMC12668627.
No constants are given. Whether binding was seen depends on the method and setting. Binding seen in cells or lysates may run through a third protein. A yes stands for co-enrichment or nearness to the bait. Other partners may have been found. For some assays here: No binding means not detected with the bait.

The chains behind the UniProt entries cited, without tags or fusion partners.
UniProt Q13485: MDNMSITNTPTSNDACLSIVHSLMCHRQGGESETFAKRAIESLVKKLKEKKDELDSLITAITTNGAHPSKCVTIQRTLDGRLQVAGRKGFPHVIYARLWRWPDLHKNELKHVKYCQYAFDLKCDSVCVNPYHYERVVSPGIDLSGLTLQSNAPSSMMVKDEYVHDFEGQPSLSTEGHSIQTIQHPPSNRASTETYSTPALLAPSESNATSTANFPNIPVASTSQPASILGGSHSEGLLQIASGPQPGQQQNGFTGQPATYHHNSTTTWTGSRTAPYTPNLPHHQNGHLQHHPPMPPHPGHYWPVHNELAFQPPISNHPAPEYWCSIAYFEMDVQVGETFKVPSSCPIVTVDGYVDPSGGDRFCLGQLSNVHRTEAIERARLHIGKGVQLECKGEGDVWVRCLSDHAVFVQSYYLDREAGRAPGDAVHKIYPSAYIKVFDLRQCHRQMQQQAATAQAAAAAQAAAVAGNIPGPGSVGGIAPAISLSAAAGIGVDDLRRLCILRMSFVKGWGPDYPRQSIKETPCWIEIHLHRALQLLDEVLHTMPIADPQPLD
UniProt P35222: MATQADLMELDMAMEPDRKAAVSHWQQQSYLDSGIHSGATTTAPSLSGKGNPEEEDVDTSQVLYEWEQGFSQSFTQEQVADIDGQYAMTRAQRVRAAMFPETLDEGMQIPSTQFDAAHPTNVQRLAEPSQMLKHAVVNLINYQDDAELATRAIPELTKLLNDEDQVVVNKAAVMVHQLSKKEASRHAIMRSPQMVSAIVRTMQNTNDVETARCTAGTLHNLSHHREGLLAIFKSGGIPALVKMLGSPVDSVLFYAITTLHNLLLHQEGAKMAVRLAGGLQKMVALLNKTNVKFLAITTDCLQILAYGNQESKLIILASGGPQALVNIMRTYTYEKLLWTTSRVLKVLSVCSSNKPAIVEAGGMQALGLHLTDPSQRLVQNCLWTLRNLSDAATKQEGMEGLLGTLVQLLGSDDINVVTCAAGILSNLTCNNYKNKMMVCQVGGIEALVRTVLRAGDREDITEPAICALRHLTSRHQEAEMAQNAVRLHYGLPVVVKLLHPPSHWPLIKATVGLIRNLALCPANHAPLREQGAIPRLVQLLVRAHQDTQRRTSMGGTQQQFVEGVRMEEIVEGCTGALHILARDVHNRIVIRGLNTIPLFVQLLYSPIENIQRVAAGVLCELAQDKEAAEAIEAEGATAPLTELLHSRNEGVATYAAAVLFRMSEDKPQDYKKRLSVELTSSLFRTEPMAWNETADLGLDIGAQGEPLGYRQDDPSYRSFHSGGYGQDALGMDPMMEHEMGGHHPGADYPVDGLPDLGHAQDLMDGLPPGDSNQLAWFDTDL
UniProt Q8IUD2: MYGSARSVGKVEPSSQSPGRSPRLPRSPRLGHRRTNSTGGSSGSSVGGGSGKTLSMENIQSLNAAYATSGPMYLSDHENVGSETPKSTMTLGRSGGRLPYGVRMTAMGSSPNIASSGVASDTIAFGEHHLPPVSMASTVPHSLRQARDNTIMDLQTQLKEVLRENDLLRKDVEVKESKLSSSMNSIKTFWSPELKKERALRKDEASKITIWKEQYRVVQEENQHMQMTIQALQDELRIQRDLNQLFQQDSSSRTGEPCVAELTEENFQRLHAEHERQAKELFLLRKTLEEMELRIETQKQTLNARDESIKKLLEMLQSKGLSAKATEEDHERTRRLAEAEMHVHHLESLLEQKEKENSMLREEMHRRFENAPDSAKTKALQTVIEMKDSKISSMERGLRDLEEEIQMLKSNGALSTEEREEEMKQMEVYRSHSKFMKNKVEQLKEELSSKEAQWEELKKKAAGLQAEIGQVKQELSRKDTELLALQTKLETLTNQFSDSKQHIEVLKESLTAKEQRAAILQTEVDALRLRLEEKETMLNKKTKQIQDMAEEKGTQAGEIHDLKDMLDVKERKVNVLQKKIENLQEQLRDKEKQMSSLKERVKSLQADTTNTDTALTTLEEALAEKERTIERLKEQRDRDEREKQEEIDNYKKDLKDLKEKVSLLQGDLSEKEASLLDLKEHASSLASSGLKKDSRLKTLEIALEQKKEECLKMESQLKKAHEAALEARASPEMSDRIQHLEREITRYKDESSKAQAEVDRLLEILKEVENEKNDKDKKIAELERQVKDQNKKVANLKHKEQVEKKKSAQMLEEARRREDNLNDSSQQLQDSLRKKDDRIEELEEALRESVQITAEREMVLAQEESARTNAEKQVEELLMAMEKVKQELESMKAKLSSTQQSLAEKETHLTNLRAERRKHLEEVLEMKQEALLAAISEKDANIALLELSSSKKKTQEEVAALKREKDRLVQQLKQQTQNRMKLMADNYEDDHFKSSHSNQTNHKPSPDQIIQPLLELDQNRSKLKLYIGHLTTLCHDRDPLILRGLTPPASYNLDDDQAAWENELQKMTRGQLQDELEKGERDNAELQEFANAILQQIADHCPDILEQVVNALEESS
UniProt Q93009: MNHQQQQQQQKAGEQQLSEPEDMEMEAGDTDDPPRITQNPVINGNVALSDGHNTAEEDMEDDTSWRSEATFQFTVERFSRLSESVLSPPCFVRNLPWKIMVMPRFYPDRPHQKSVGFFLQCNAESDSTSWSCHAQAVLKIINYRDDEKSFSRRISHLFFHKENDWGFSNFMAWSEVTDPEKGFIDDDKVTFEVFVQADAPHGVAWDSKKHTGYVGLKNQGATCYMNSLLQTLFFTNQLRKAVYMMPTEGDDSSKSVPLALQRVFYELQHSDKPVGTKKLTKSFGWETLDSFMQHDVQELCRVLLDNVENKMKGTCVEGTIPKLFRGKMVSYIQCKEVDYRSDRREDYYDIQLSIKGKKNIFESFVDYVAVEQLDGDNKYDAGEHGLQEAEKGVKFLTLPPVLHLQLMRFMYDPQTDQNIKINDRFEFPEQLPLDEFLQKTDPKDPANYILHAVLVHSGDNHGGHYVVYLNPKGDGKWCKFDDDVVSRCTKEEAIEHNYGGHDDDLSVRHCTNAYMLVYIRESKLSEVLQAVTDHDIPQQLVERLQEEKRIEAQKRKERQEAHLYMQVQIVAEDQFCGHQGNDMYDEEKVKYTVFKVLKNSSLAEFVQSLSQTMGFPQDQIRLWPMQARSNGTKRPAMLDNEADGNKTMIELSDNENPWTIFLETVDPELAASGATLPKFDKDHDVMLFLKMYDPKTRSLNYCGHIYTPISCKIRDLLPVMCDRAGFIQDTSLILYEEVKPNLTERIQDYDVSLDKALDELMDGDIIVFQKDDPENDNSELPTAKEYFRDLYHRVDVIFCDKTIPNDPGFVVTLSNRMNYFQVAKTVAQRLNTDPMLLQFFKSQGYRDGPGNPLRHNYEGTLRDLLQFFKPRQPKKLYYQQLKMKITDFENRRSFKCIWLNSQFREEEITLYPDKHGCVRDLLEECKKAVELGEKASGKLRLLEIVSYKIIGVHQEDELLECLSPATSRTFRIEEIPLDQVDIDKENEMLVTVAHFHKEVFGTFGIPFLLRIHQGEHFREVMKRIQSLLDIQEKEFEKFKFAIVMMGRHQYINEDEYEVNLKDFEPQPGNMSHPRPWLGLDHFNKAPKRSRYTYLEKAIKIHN
UniProt P35221: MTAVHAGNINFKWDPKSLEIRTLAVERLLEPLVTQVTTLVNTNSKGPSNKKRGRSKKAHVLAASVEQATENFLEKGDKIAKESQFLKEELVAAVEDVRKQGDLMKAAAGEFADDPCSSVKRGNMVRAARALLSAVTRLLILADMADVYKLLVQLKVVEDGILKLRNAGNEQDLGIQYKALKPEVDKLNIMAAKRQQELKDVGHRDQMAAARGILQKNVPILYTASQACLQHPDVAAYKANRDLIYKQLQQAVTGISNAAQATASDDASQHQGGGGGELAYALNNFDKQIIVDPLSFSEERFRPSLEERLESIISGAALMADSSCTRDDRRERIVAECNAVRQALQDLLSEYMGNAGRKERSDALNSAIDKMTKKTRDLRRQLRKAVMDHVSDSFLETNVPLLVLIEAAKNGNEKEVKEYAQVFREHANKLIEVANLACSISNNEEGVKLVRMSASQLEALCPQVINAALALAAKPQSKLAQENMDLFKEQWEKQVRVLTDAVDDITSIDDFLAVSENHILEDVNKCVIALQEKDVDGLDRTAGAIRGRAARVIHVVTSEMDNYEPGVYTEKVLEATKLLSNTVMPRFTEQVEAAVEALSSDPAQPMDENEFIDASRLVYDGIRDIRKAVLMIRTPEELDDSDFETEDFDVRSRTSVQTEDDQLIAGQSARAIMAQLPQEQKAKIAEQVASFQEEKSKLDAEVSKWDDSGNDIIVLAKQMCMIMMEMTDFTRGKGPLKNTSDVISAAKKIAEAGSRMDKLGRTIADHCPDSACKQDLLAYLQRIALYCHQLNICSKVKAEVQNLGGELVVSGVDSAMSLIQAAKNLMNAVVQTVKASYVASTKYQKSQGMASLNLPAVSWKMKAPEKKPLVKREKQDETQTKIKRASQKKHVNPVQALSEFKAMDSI
UniProt Q5VTR2: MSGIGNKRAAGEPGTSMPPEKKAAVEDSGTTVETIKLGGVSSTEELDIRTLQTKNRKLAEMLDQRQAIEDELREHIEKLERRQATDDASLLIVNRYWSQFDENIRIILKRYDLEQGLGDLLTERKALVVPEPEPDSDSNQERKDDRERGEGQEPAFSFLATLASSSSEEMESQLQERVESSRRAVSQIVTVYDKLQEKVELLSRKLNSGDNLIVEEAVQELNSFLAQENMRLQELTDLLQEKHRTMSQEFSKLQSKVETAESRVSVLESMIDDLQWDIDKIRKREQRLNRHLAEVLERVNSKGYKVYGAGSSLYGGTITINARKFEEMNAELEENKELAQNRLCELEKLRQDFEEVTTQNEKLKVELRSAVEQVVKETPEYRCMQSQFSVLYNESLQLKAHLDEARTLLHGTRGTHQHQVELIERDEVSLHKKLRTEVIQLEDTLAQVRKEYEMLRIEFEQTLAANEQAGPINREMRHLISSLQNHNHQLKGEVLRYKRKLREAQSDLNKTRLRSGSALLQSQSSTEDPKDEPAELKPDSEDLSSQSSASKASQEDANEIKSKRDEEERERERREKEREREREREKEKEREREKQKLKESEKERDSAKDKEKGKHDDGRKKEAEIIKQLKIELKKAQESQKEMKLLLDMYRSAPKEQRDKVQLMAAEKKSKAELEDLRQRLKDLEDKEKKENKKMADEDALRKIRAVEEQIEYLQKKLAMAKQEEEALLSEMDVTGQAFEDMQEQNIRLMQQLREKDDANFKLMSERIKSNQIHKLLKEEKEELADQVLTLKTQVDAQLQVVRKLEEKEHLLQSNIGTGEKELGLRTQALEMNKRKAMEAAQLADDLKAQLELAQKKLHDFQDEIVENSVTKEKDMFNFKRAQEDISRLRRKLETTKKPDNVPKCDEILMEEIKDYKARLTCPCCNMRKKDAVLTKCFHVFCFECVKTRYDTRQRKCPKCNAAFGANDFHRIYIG
UniProt Q9UPN9: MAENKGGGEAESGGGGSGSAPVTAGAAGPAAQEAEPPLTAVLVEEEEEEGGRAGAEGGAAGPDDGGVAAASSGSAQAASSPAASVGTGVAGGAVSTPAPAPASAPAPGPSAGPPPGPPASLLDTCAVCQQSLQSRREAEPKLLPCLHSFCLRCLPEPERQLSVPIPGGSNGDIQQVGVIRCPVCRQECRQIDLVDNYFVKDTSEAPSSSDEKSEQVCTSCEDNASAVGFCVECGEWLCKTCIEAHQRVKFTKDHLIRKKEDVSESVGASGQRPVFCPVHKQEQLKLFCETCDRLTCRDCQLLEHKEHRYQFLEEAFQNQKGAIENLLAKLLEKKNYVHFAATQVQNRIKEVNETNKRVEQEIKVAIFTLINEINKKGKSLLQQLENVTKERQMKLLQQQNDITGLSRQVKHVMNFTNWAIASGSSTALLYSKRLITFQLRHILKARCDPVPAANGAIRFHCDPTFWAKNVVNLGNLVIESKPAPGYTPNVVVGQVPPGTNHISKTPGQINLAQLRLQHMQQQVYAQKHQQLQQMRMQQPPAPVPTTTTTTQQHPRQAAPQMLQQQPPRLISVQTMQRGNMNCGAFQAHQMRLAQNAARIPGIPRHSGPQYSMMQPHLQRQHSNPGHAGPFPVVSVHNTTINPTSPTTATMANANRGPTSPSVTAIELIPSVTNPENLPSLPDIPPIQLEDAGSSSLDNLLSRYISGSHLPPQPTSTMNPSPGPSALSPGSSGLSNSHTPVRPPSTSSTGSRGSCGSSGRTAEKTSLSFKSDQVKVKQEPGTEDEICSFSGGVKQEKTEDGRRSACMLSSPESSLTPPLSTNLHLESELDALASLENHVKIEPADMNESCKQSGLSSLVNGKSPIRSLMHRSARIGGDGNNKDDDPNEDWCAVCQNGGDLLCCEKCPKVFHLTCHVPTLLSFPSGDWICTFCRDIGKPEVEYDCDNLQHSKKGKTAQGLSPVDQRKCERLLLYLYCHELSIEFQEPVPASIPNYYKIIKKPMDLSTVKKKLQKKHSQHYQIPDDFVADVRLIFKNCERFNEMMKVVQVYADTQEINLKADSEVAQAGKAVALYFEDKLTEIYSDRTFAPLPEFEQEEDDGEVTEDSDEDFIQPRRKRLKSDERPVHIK

Assays:
SMAD4-PafA-Myc [1] = target: SMAD4-PafA-Myc (UniProt Q13485); experiment: proximity labelling; PUP-IT: HEK293T cells stably expressing 3 × Flag-TbN-PupE transfected with bait-PafA-Myc (prey endogenous or co-transfected); RIPA lysate, anti-Flag immunoprecipitation, immunoblot of the prey; molecular weight laddering as read-out
[2] = target: β-catenin-PafA-Myc (human) (UniProt P35222); experiment: as above
HA-TbC-β-catenin (human) = HA-TbC-β-catenin (human) (UniProt P35222); experiment: proximity labelling; STUPPIT approach I: HEK293T cells stably expressing 3 × Flag-TbN-PupE co-transfected with preyA-PafA-Myc and HA-TbC-preyC; streptavidin pulldown of biotinylated proteins, immunoblot
SMAD4-PafA-Myc [3] = target: SMAD4-PafA-Myc (UniProt Q13485); experiment: as above

Substance | binding (SMAD4-PafA-Myc [1]) | binding [2] | binding (HA-TbC-β-catenin (human)) | binding (SMAD4-PafA-Myc [3])
HA-ERC1 (from UniProt Q8IUD2 1-1116) | binds | binds |  | 
HA-USP7 (from UniProt Q93009 1-1102) | binds |  |  | 
α-catenin-V5 (from UniProt P35221 1-906) |  |  | binds | 

The remaining lines, values ahead:

binding (SMAD4-PafA-Myc [1]) | binding [2] | binding (HA-TbC-β-catenin (human)) | binding (SMAD4-PafA-Myc [3]) | Substance
no binding | binds |  |  | RNF20-HA (from UniProt Q5VTR2 1-975)
 |  | binds | binds | TRIM33 (expression construct) (from UniProt Q9UPN9 1-1127)
